Measured values published in the supplement of paper PMC7238544.
Where a name gives a salt, the structure may show the parent alone. ± gives the standard deviation of the averaged measurements. This is one part of the list. The data scatter; read single values as rough.

Assays:
hAMSC donor 1 [1] = assay: Hoechst total cell count ratio vs vehicle control; higher = more cells (less toxicity)
hAMSC donor 2 [2] = assay: as above
hAMSC donor 1 [3] = assay: transgenic luciferase activity (RLU/mg protein) fold change vs vehicle control (ratio); higher = more transgene expression; conditions: priming compound concentration 0.2 µM
hAMSC donor 1 [4] = assay: transfection efficiency (EGFP+ cells / Hoechst count) fold change vs vehicle control (ratio); higher = enhanced transfection
hAMSC donor 2 [5] = assay: as above
hAMSC donor 2 [6] = assay: transgenic luciferase activity (RLU/mg protein) fold change vs vehicle control (ratio); hAMSC are human adipose-derived mesenchymal stem cells given an EGFP-luciferase plasmid by lipofection; higher = more transgene expression
[7] = priming compound concentration 0.2 µM
[8] = priming compound concentration 1.7 µM
[9] = priming compound concentration 13 µM

Structure (SMILES)	Hoechst total cell count ratio (hAMSC donor 1 [1]; [7])	Hoechst total cell count ratio (hAMSC donor 1 [1]; [8])	Hoechst total cell count ratio (hAMSC donor 1 [1]; [9])	Hoechst total cell count ratio (hAMSC donor 2 [2]; [7])	Hoechst total cell count ratio (hAMSC donor 2 [2]; [8])	Hoechst total cell count ratio (hAMSC donor 2 [2]; [9])	transgenic luciferase activity (hAMSC donor 1 [3])	transfection efficiency (hAMSC donor 1 [4]; [7])	transfection efficiency (hAMSC donor 1 [4]; [8])	transfection efficiency (hAMSC donor 1 [4]; [9])	transfection efficiency (hAMSC donor 2 [5]; [7])	transfection efficiency (hAMSC donor 2 [5]; [8])	transfection efficiency (hAMSC donor 2 [5]; [9])	transgenic luciferase activity (hAMSC donor 2 [6]; [8])	transgenic luciferase activity (hAMSC donor 2 [6]; [9])
Cc1nc(=O)c2cc(CN(C)c3ccc(C(=O)N[C@@H](CCC(=O)O)C(=O)O)s3)ccc2[nH]1 [Raltitrexed]	1.18 ± 0.029	1.53 ± 0.26	1.19 ± 0.13	0.992 ± 0.063	1.12 ± 0.069	0.948 ± 0.057	1.11 ± 0.33	1.08 ± 0.36	0.734 ± 0.36	0.952 ± 0.13	1.08 ± 0.15	1.06 ± 0.17	1.06 ± 0.099	–	–
COc1nc(C)nc(Cl)c1NC1=NCCN1 [Moxonidine hydrochloride]	1.58 ± 0.21	1.55 ± 0.11	1.38 ± 0.18	1.1 ± 0.15	0.949 ± 0.13	1.18 ± 0.27	–	0.916 ± 0.092	1.03 ± 0.11	1.18 ± 0.16	1.21 ± 0.18	1.21 ± 0.19	1.21 ± 0.11	0.683 ± 0.096	–
O=C1[C@H]2CCCC[C@H]2C(=O)N1CCCCN1CCN(c2nsc3ccccc23)CC1 [Perospirone hydrochloride]	1.09 ± 0.038	1.38 ± 0.43	1.39 ± 0.044	0.856 ± 0.13	1.03 ± 0.045	1.03 ± 0.09	–	0.816 ± 0.14	0.767 ± 0.25	0.902 ± 0.052	1.05 ± 0.25	1.11 ± 0.068	1.2 ± 0.2	–	0.472 ± 0.018
CNCC[C@H](Oc1cccc2ccccc12)c1cccs1 [Duloxetine hydrochloride]	1.12 ± 0.21	1.05 ± 0.12	1.3 ± 0.16	0.993 ± 0.04	1.17 ± 0.065	1.01 ± 0.1	–	0.992 ± 0.35	1.53 ± 0.25	0.827 ± 0.16	1.17 ± 0.089	1.09 ± 0.031	0.703 ± 0.1	–	0.588 ± 0.28
C/C=C1\[C@H]2C=C(C)C[C@]1(N)c1ccc(=O)[nH]c1C2 [Huperzine A]	1.51 ± 0.068	1.54 ± 0.18	1.58 ± 0.21	1.06 ± 0.078	0.984 ± 0.22	1.31 ± 0.31	–	0.971 ± 0.12	1.1 ± 0.17	0.923 ± 0.21	0.994 ± 0.083	1.23 ± 0.071	1.21 ± 0.35	0.969 ± 0.34	–
Oc1ccc(C2CNCCc3c2cc(O)c(O)c3Cl)cc1 (stereo unspecified) [Fenoldopam mesylate]	1.63 ± 0.2	1.53 ± 0.035	1.55 ± 0.1	1.18 ± 0.24	1.02 ± 0.1	1.04 ± 0.16	–	0.894 ± 0.057	0.951 ± 0.041	0.915 ± 0.26	0.994 ± 0.16	1.49 ± 0.091	1.35 ± 0.096	0.852 ± 0.16	–
Clc1ccccc1CN1CCc2sccc2C1 [Ticlopidine hydrochloride]	1.66 ± 0.18	1.35 ± 0.19	1.29 ± 0.095	0.985 ± 0.23	1.12 ± 0.1	1.28 ± 0.1	–	0.829 ± 0.26	1.04 ± 0.11	1.25 ± 0.15	1.05 ± 0.11	1.29 ± 0.11	1.32 ± 0.38	0.431 ± 0.011	–
